For at least one compound, name, drawing or mass did not settle the structure.
Assays:
[1] = system: 15-PGDH-luciferase fusion reporter in V9m, LS174T and V503 cells; experiment: 15-PGDH-luciferase fusion gene reporter induction, stated for the three cell line backgrounds together; assay type: cell-based
[2] = target: 15-PGDH protein (Homo sapiens (Human), UniProt P15428); experiment: Shift of melting temperature of recombinant 15-PGDH (SYPRO Orange); assay type: binding

Amino acid sequences for entries named in this document (tags omitted). A change or cut given only in a name is not applied to a line headed by its entry.
UniProt P15428: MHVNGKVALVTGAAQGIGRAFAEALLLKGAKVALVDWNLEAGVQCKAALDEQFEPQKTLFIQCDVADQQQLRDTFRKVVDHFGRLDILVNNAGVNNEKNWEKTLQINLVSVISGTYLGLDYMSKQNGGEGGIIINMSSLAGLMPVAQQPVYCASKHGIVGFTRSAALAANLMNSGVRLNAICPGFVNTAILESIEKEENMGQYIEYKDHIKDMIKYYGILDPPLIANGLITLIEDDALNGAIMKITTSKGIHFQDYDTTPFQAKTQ

Compound | reporter induction in reporter cell lines [1] | melting temperature [2] [degrees]
CCCC[S+]([O-])c1sc2nc(-c3cccs3)ccc2c1N (centres unmarked) [SW206980, 2-(butylsulfinyl)-6-(thiophen-2-yl)thieno[2,3-b]pyridin-3-amine] | highly active compound in reporter induction | –
CCCC[S+]([O-])c1sc2nc(-c3nccs3)ccc2c1N (centres unmarked) [SW206992, 2-(butylsulfinyl)-6-(thiazol-2-yl)thieno[2,3-b]pyridin-3-amine] | – | 59

— patent US9790233B2, “Compositions and methods of modulating 15-PGDH activity” (CASE WESTERN RESERVE UNIVERSITY, priority 2012, dated 2017)
